PubChem BioAssay AID652272, Drosophila RNAi Screening Center, 2013
Purpose: 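Genes whose knock-down decreases or increases Hedgehog reporter output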 (primary screen). Cell system: Drosophila clone 8 (Cl8) cells. Reagent: long dsRNA against Drosophila genes. Measured: 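Firefly light from a Hedgehog-responsive ptc promoter reporter and Renilla reference light, both read on a plate reader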. Reading the numbers: firefly Hh reporter signal: higher = more ptc reporter light; Renilla reference signal: higher = more Renilla control light. Active means: 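Called a hit if the two-replicate mean z-score lies below -2 or above +3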. Meaning of the calls: active = hit: reporter lowered or raised; inactive = not a hit.
In all, the deposit lists about 21,000 reagents; below is a random part of those that have a named target and a result. In the full data, 503 (2.4%) got an active call. 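Raw plate light values, not normalised; calls rest on replicate z-scores that were not deposited; hits include reporter decreases as well as increases.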 Unmarked entries are inactive. The record does not give: the amount of reagent, the time to read-out.

{"Target gene": "Fmo-2", "DRSC id": "DRSC04983", "firefly Hh reporter signal, replicate 1": 1.12e5, "firefly Hh reporter signal, replicate 2": 87971, "Renilla reference signal, replicate 1": 4224, "Renilla reference signal, replicate 2": 3636}
{"Target gene": "CG17721", "DRSC id": "DRSC15253", "firefly Hh reporter signal, replicate 1": 76688, "firefly Hh reporter signal, replicate 2": 1.20e5, "Renilla reference signal, replicate 1": 2656, "Renilla reference signal, replicate 2": 3536}
{"Target gene": "CG17732", "DRSC id": "DRSC10283", "firefly Hh reporter signal, replicate 1": 1.20e5, "firefly Hh reporter signal, replicate 2": 1.36e5, "Renilla reference signal, replicate 1": 4466, "Renilla reference signal, replicate 2": 3965}
{"Target gene": "nAChRalpha1", "DRSC id": "DRSC13664", "firefly Hh reporter signal, replicate 1": 37829, "firefly Hh reporter signal, replicate 2": 1.13e5, "Renilla reference signal, replicate 1": 10176, "Renilla reference signal, replicate 2": 2432}
{"Target gene": "nAChRalpha1", "DRSC id": "DRSC13670", "firefly Hh reporter signal, replicate 1": "35061 (active)", "firefly Hh reporter signal, replicate 2": 33912, "Renilla reference signal, replicate 1": 2122, "Renilla reference signal, replicate 2": 9641}
{"Target gene": "nAChRalpha1", "DRSC id": "DRSC13672", "firefly Hh reporter signal, replicate 1": 40315, "firefly Hh reporter signal, replicate 2": 2.22e5, "Renilla reference signal, replicate 1": 9428, "Renilla reference signal, replicate 2": 4181}
{"Target gene": "nAChRalpha1", "DRSC id": "DRSC17008", "firefly Hh reporter signal, replicate 1": 5.14e5, "firefly Hh reporter signal, replicate 2": 1.07e5, "Renilla reference signal, replicate 1": 28154, "Renilla reference signal, replicate 2": 3465}
{"Target gene": "CG43095", "DRSC id": "DRSC13573", "firefly Hh reporter signal, replicate 1": 2313, "firefly Hh reporter signal, replicate 2": 1.65e5, "Renilla reference signal, replicate 1": 560, "Renilla reference signal, replicate 2": 4547}
{"Target gene": "JhI-21", "DRSC id": "DRSC02161", "firefly Hh reporter signal, replicate 1": 1.10e5, "firefly Hh reporter signal, replicate 2": 88993, "Renilla reference signal, replicate 1": 4391, "Renilla reference signal, replicate 2": 4168}
{"Target gene": "CG46301", "DRSC id": "DRSC01916", "firefly Hh reporter signal, replicate 1": 1.79e5, "firefly Hh reporter signal, replicate 2": 7.20e5, "firefly Hh reporter signal, replicate 3": 71155, "Renilla reference signal, replicate 1": 4602, "Renilla reference signal, replicate 2": 42720}
{"Target gene": "CG13154", "DRSC id": "DRSC06279", "firefly Hh reporter signal, replicate 1": 66602, "firefly Hh reporter signal, replicate 2": 38280, "Renilla reference signal, replicate 1": 2146, "Renilla reference signal, replicate 2": 3533}
{"Target gene": "twit", "DRSC id": "DRSC03210", "firefly Hh reporter signal, replicate 1": 1.15e5, "firefly Hh reporter signal, replicate 2": 1.05e5, "Renilla reference signal, replicate 1": 4224, "Renilla reference signal, replicate 2": 4322}

2 entries from above, sorted by “firefly Hh reporter signal, replicate 1”, highest first:
{"Target gene": "CG17732", "DRSC id": "DRSC10283", "firefly Hh reporter signal, replicate 1": 1.20e5, "firefly Hh reporter signal, replicate 2": 1.36e5, "Renilla reference signal, replicate 1": 4466, "Renilla reference signal, replicate 2": 3965}
{"Target gene": "CG17721", "DRSC id": "DRSC15253", "firefly Hh reporter signal, replicate 1": 76688, "firefly Hh reporter signal, replicate 2": 1.20e5, "Renilla reference signal, replicate 1": 2656, "Renilla reference signal, replicate 2": 3536}
